Tested on: SLEV infection in Vero CCL81 cells
Assay: microbe, parasite or virus in culture
Assay type: cell-based, St. Louis encephalitis virus (SLEV BeH 355964)
Conditions: St. Louis encephalitis virus, 72 h

CCCCc1oc2ccccc2c1C(=O)c1cc(I)c(OCCN(CC)CC)c(I)c1 [Amiodarone]
EC50: 4.6 µM

— article PMC10747599 (Viruses, 2023)
